# According to PubChem BioAssay AID504834 (National Center for Advancing Translational Sciences (NCATS), 2011):
# In all, about 320,000 compounds went through this assay and about 22,000 (6.9%) were called active. Inconclusive results, whose numbers are uncertain, are shown with a selection of clear calls. The call rests on the fitted dose curve; in most records, active means well fitted inhibition curve with a large enough effect; inconclusive means small, poorly fitted or top-dose-only effect, or another doubt; inactive means no such curve, though single readings can be large or run the other way. Potencies of inconclusive entries are doubtful fits and often do not repeat.
# Experiment: Primary qHTS for delayed death inhibitors of the malarial parasite plastid, 96 hour incubation
# Settings: P. falciparum luciferase reporter growth; series mostly up to 28.7 µM; activity change, negative = inhibition: at the top concentration
# How it was run: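 Erythrocytes infected with luciferase-expressing P. falciparum were dispensed at 2% hematocrit and 0.05% parasitemia (final), then incubated with compounds 96 hours at 37 C in 5% CO2. Luminescence after detection reagent addition reported growth.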
# On the % scale 0 is the no-effect control and ±100 the full control effect; potency means the concentration at half of the fitted maximal effect.
SMILES,Potency,"activity change, negative = inhibition"
CNC[C@H](O)c1ccc(OC(=O)C(C)(C)C)c(OC(=O)C(C)(C)C)c1,active: 3.22 µM,–
CCN(CC(=O)Nc1c(F)cccc1F)C(=O)C1CCN(c2ncnc3sc(C)c(C)c23)CC1,"inconclusive: 6.57 µM [inhibitor, partial curve]",–
CN1CCN(CC(=O)Nc2nc3c(s2)CCCC3)CC1,–,inactive: 24.7%
O=C(O)CP(=O)(O)O,"inconclusive: 13.5 µM [inhibitor, single point]",–
COc1ccc(COc2ccsc2C(=O)Nc2ccc(Cl)cc2)cc1,"inconclusive: 14.7 µM [inhibitor, single point]",–
O=C(CC12CC3CC(CC(C3)C1)C2)N1CCN(S(=O)(=O)c2cccs2)CC1,active: 13.1 µM,–
O=[N+]([O-])c1c(NCCO)cc(Sc2nc3ccccc3s2)c2nonc12,"inconclusive: 0.0026 µM [inhibitor, full curve, poor fit]",–
O=C(c1ccc(Cl)c([N+](=O)[O-])c1)N(Cc1ccc(F)cc1)C1CCS(=O)(=O)C1 (stereo unspecified),"inconclusive: 18.5 µM [inhibitor, single point]",–
O=C1NCN(c2ccccc2)C12CCNCC2,"inconclusive: 18.5 µM [inhibitor, single point]",–
CCc1nc2ccc(C(=O)N3CCN(c4cccc(C)c4C)CC3)cc2nc1CC,"inconclusive: 4.65 µM [inhibitor, single point]",–
Cc1cccc(C(C)C)c1NC(=O)c1cccnc1,active: 11.7 µM,–
Cc1cc(OCc2cc(C(=O)N(C)CCOc3ccccc3)no2)cc(C)c1Cl,–,inactive: -15.5%
CCOCCCNC(=O)c1ccc(-n2c(=S)[nH]c3ccccc3c2=O)cc1,–,inactive: 0.478%
CCN(C(=O)/C=C/c1cc(OC)c(OC)c(OC)c1)C1CCCCC1,"inconclusive: 13.1 µM [inhibitor, single point]",–
Cc1cc(C)nc(NS(=O)(=O)c2ccc(NC(=O)C3(c4ccccc4)CCCC3)cc2)n1,"inconclusive: 18.5 µM [inhibitor, single point]",–
Cn1c(CO)cnc1S(=O)(=O)Cc1ccc(Cl)cc1,–,inactive: 6.6%
COc1ccccc1N1CCN(C(=O)c2sc3ncn(CC(=O)N4CCC(C)CC4)c(=O)c3c2C)CC1,"inconclusive: 1.85 µM [inhibitor, full curve]",–
COc1ccc(NS(=O)(=O)c2cc(NC(=O)Cn3cnc4c3c(=O)n(C)c(=O)n4C)ccc2C)cc1,–,inactive: -31.7%
Cc1c(NC(=O)c2ccco2)cccc1C(=O)NN1C(=O)c2ccccc2C1=O,active: 14.7 µM,–
O=C(Nc1cc(Cl)cc(Cl)c1)c1cccnc1,–,inactive: 19.2%
CCCN1C(=O)/C(=N\OCC(=O)NC23CC4CC(CC(C4)C2)C3)c2ccccc21,"inconclusive: 18.5 µM [inhibitor, single point]",–

# A few values from the list:
# O=[N+]([O-])c1c(NCCO)cc(Sc2nc3ccccc3s2)c2nonc12 – Potency: inconclusive: 0.0026 µM [inhibitor, full curve, poor fit]
# O=C(O)CP(=O)(O)O – Potency: inconclusive: 13.5 µM [inhibitor, single point]
